# Results: article PMC11257846
# By UniProt entry, the sequences of proteins in these tests, tags left out.
# UniProt Q7Z434: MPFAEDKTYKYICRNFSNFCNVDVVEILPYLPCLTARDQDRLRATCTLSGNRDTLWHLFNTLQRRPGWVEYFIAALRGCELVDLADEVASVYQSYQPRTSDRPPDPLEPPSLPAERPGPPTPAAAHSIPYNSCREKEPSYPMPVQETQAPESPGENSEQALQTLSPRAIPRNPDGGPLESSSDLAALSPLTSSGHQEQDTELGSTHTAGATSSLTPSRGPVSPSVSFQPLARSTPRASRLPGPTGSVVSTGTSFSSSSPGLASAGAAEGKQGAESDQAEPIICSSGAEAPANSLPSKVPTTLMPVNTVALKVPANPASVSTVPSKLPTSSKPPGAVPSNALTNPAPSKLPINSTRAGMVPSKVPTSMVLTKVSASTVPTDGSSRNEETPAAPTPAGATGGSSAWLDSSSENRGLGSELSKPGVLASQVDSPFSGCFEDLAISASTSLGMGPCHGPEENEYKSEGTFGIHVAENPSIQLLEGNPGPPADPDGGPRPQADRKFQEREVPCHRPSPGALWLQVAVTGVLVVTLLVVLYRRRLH
# No constants are given. Whether binding was seen depends on the method and setting. Binding seen in cells or lysates may run through a third protein. Some binding calls cover weakened binding; strength is not graded here. Tags and fused reporters may be left off the sequences shown.
# T1: HDAC8-HA (histone deacetylase 8) (UniProt Q9BY41)
# T1 sequence: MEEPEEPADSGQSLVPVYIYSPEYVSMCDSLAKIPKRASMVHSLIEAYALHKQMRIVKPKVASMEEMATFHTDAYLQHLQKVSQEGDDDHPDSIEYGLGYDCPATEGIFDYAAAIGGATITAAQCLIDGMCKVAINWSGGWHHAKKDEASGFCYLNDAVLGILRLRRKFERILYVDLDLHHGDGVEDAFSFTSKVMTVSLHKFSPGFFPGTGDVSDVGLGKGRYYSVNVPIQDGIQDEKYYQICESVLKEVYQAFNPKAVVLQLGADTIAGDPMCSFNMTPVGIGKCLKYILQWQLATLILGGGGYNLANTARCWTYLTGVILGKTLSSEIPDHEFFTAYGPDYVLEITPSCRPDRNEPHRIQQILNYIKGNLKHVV
# T2: RIG-I-FLAG (retinoic acid-inducible gene I) (UniProt O95786)
# T2 sequence: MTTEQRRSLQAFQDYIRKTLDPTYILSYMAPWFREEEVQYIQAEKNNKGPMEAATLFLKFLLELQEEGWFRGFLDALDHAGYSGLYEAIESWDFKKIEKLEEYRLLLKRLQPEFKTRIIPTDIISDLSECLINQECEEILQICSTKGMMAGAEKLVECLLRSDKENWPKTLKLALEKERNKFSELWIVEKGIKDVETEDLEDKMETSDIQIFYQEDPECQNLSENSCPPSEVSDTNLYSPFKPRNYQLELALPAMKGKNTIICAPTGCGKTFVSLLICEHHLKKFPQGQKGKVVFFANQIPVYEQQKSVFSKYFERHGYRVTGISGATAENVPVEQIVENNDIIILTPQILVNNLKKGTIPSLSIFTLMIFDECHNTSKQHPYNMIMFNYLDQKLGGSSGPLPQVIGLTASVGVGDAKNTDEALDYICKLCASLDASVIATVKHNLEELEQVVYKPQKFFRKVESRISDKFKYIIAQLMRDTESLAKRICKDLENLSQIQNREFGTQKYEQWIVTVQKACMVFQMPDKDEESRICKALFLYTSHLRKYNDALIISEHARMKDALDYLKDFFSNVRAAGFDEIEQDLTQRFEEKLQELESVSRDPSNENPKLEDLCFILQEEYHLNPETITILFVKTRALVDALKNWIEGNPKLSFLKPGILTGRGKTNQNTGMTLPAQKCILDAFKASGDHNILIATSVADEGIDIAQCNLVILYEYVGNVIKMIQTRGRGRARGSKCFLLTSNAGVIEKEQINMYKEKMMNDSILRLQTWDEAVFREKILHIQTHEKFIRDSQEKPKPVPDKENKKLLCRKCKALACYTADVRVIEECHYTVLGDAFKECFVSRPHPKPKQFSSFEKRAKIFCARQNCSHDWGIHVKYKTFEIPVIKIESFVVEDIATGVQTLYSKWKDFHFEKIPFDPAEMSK
# T3: HDAC8-MYC (histone deacetylase 8) (UniProt Q9BY41)
# T3 sequence: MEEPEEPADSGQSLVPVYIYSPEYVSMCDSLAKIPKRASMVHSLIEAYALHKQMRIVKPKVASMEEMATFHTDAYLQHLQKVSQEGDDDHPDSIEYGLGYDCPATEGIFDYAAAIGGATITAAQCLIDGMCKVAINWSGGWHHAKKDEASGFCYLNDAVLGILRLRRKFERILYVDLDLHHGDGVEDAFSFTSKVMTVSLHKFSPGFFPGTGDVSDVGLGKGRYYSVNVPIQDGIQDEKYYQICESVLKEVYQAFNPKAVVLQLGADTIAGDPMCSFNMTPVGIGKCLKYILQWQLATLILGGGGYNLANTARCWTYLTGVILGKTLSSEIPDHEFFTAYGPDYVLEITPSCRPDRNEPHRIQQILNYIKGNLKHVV
# B1: HDAC8-MYC (histone deacetylase 8) (enzyme, UniProt Q9BY41 1-377)
# chain: MEEPEEPADSGQSLVPVYIYSPEYVSMCDSLAKIPKRASMVHSLIEAYALHKQMRIVKPKVASMEEMATFHTDAYLQHLQKVSQEGDDDHPDSIEYGLGYDCPATEGIFDYAAAIGGATITAAQCLIDGMCKVAINWSGGWHHAKKDEASGFCYLNDAVLGILRLRRKFERILYVDLDLHHGDGVEDAFSFTSKVMTVSLHKFSPGFFPGTGDVSDVGLGKGRYYSVNVPIQDGIQDEKYYQICESVLKEVYQAFNPKAVVLQLGADTIAGDPMCSFNMTPVGIGKCLKYILQWQLATLILGGGGYNLANTARCWTYLTGVILGKTLSSEIPDHEFFTAYGPDYVLEITPSCRPDRNEPHRIQQILNYIKGNLKHVV
# B2: RIG-I-FLAG (retinoic acid-inducible gene I) (protein, UniProt O95786 1-925)
# chain: MTTEQRRSLQAFQDYIRKTLDPTYILSYMAPWFREEEVQYIQAEKNNKGPMEAATLFLKFLLELQEEGWFRGFLDALDHAGYSGLYEAIESWDFKKIEKLEEYRLLLKRLQPEFKTRIIPTDIISDLSECLINQECEEILQICSTKGMMAGAEKLVECLLRSDKENWPKTLKLALEKERNKFSELWIVEKGIKDVETEDLEDKMETSDIQIFYQEDPECQNLSENSCPPSEVSDTNLYSPFKPRNYQLELALPAMKGKNTIICAPTGCGKTFVSLLICEHHLKKFPQGQKGKVVFFANQIPVYEQQKSVFSKYFERHGYRVTGISGATAENVPVEQIVENNDIIILTPQILVNNLKKGTIPSLSIFTLMIFDECHNTSKQHPYNMIMFNYLDQKLGGSSGPLPQVIGLTASVGVGDAKNTDEALDYICKLCASLDASVIATVKHNLEELEQVVYKPQKFFRKVESRISDKFKYIIAQLMRDTESLAKRICKDLENLSQIQNREFGTQKYEQWIVTVQKACMVFQMPDKDEESRICKALFLYTSHLRKYNDALIISEHARMKDALDYLKDFFSNVRAAGFDEIEQDLTQRFEEKLQELESVSRDPSNENPKLEDLCFILQEEYHLNPETITILFVKTRALVDALKNWIEGNPKLSFLKPGILTGRGKTNQNTGMTLPAQKCILDAFKASGDHNILIATSVADEGIDIAQCNLVILYEYVGNVIKMIQTRGRGRARGSKCFLLTSNAGVIEKEQINMYKEKMMNDSILRLQTWDEAVFREKILHIQTHEKFIRDSQEKPKPVPDKENKKLLCRKCKALACYTADVRVIEECHYTVLGDAFKECFVSRPHPKPKQFSSFEKRAKIFCARQNCSHDWGIHVKYKTFEIPVIKIESFVVEDIATGVQTLYSKWKDFHFEKIPFDPAEMSK
# B3: TBK1-FLAG (enzyme, UniProt Q9UHD2 1-729)
# chain: MQSTSNHLWLLSDILGQGATANVFRGRHKKTGDLFAIKVFNNISFLRPVDVQMREFEVLKKLNHKNIVKLFAIEEETTTRHKVLIMEFCPCGSLYTVLEEPSNAYGLPESEFLIVLRDVVGGMNHLRENGIVHRDIKPGNIMRVIGEDGQSVYKLTDFGAARELEDDEQFVSLYGTEEYLHPDMYERAVLRKDHQKKYGATVDLWSIGVTFYHAATGSLPFRPFEGPRRNKEVMYKIITGKPSGAISGVQKAENGPIDWSGDMPVSCSLSRGLQVLLTPVLANILEADQEKCWGFDQFFAETSDILHRMVIHVFSLQQMTAHKIYIHSYNTATIFHELVYKQTKIISSNQELIYEGRRLVLEPGRLAQHFPKTTEENPIFVVSREPLNTIGLIYEKISLPKVHPRYDLDGDASMAKAITGVVCYACRIASTLLLYQELMRKGIRWLIELIKDDYNETVHKKTEVVITLDFCIRNIEKTVKVYEKLMKINLEAAELGEISDIHTKLLRLSSSQGTIETSLQDIDSRLSPGGSLADAWAHQEGTHPKDRNVEKLQVLLNCMTEIYYQFKKDKAERRLAYNEEQIHKFDKQKLYYHATKAMTHFTDECVKKYEAFLNKSEEWIRKMLHLRKQLLSLTNQCFDIEEEVSKYQEYTNELQETLPQKMFTASSGIKHTMTPIYPSSNTLVEMTLGMKKLKEEMEGVVKELAENNHILERFGSLTMDGGLRNVDCL
# B4: MDA5-FLAG (melanoma differentiation-associated factor 5) (protein, UniProt Q9BYX4 1-1025)
# chain: MSNGYSTDENFRYLISCFRARVKMYIQVEPVLDYLTFLPAEVKEQIQRTVATSGNMQAVELLLSTLEKGVWHLGWTREFVEALRRTGSPLAARYMNPELTDLPSPSFENAHDEYLQLLNLLQPTLVDKLLVRDVLDKCMEEELLTIEDRNRIAAAENNGNESGVRELLKRIVQKENWFSAFLNVLRQTGNNELVQELTGSDCSESNAEIENLSQVDGPQVEEQLLSTTVQPNLEKEVWGMENNSSESSFADSSVVSESDTSLAEGSVSCLDESLGHNSNMGSDSGTMGSDSDEENVAARASPEPELQLRPYQMEVAQPALEGKNIIICLPTGSGKTRVAVYIAKDHLDKKKKASEPGKVIVLVNKVLLVEQLFRKEFQPFLKKWYRVIGLSGDTQLKISFPEVVKSCDIIISTAQILENSLLNLENGEDAGVQLSDFSLIIIDECHHTNKEAVYNNIMRHYLMQKLKNNRLKKENKPVIPLPQILGLTASPGVGGATKQAKAEEHILKLCANLDAFTIKTVKENLDQLKNQIQEPCKKFAIADATREDPFKEKLLEIMTRIQTYCQMSPMSDFGTQPYEQWAIQMEKKAAKEGNRKERVCAEHLRKYNEALQINDTIRMIDAYTHLETFYNEEKDKKFAVIEDDSDEGGDDEYCDGDEDEDDLKKPLKLDETDRFLMTLFFENNKMLKRLAENPEYENEKLTKLRNTIMEQYTRTEESARGIIFTKTRQSAYALSQWITENEKFAEVGVKAHHLIGAGHSSEFKPMTQNEQKEVISKFRTGKINLLIATTVAEEGLDIKECNIVIRYGLVTNEIAMVQARGRARADESTYVLVAHSGSGVIEHETVNDFREKMMYKAIHCVQNMKPEEYAHKILELQMQSIMEKKMKTKRNIAKHYKNNPSLITFLCKNCSVLACSGEDIHVIEKMHHVNMTPEFKELYIVRENKALQKKCADYQINGEIICKCGQAWGTMMVHKGLDLPCLKIRNFVVVFKNNSTKKQYKKWVELPITFPNLDYSECCLFSDED
# Assays:
# [1] = molecular target: T1, HDAC8-HA (histone deacetylase 8); assay: co-IP
# [2] = molecular target: T2, RIG-I-FLAG (retinoic acid-inducible gene I); assay: co-IP; HEK293T cells co-transfected with the indicated plasmids for 24 h, lysed; anti-FLAG, anti-MYC or anti-HA antibody with GammaBind G Plus-Sepharose overnight at 4°C; precipitates analysed by western blot
# [3] = molecular target: T3, HDAC8-MYC (histone deacetylase 8); assay: as above
# [4] = molecular target: T1, HDAC8-HA (histone deacetylase 8); assay: as above
molecule,measurement,setting,value
MAVS-MYC (mitochondria antiviral signaling protein) (from UniProt Q7Z434 1-540),binding,[1],no binding
B1,binding,[2],binds
B2,binding,[3],binds
B3,binding,[4],no binding
B4,binding,[4],no binding
